# According to PMC6465732:
# B1: tGFP-PTK7 (wildtype), protein tyrosine kinase 7 (receptor, UniProt Q13308 31-1070)
# chain: AIVFIKQPSSQDALQGRRALLRCEVEAPGPVHVYWLLDGAPVQDTERRFAQGSSLSFAAVDRLQDSGTFQCVARDDVTGEEARSANASFNIKWIEAGPVVLKHPASEAEIQPQTQVTLRCHIDGHPRPTYQWFRDGTPLSDGQSNHTVSSKERNLTLRPAGPEHSGLYSCCAHSAFGQACSSQNFTLSIADESFARVVLAPQDVVVARYEEAMFHCQFSAQPPPSLQWLFEDETPITNRSRPPHLRRATVFANGSLLLTQVRPRNAGIYRCIGQGQRGPPIILEATLHLAEIEDMPLFEPRVFTAGSEERVTCLPPKGLPEPSVWWEHAGVRLPTHGRVYQKGHELVLANIAESDAGVYTCHAANLAGQRRQDVNITVATVPSWLKKPQDSQLEEGKPGYLDCLTQATPKPTVVWYRNQMLISEDSRFEVFKNGTLRINSVEVYDGTWYRCMSSTPAGSIEAQARVQVLEKLKFTPPPQPQQCMEFDKEATVPCSATGREKPTIKWERADGSSLPEWVTDNAGTLHFARVTRDDAGNYTCIASNGPQGQIRAHVQLTVAVFITFKVEPERTTVYQGHTALLQCEAQGDPKPLIQWKGKDRILDPTKLGPRMHIFQNGSLVIHDVAPEDSGRYTCIAGNSCNIKHTEAPLYVVDKPVPEESEGPGSPPPYKMIQTIGLSVGAAVAYIIAVLGLMFYCKKRCKAKRLQKQPEGEEPEMECLNGGPLQNGQPSAEIQEEVALTSLGSGPAATNKRHSTSDKMHFPRSSLQPITTLGKSEFGEVFLAKAQGLEEGVAETLVLVKSLQSKDEQQQLDFRRELEMFGKLNHANVVRLLGLCREAEPHYMVLEYVDLGDLKQFLRISKSKDEKLKSQPLSTKQKVALCTQVALGMEHLSNNRFVHKDLAARNCLVSAQRQVKVSALGLSKDVYNSEYYHFRQAWVPLRWMSPEAILEGDFSTKSDVWAFGVLMWEVFTHGEMPHGGQADDEVLADLQAGKARLPQPEGCPSKLYRLMQRCWALSPKDRPSFSEIASALGDSTVDSKP
# Tests used:
# HA-Vangl2 = assay: co-IP; HEK293T cells co-transfected with tGFP-PTK7 (WT or variants) and HA-Dvl2 or HA-Vangl2; lysed in RIPA buffer 48 hr after transfection; anti-HA antibody with protein G beads overnight at 4°C; three washes with RIPA buffer; immunoblot with anti-tGFP or anti-HA
# HA-Dvl2 (Dishevelled 2) = assay: as above
binder,measurement,setting,value
B1,binding,HA-Vangl2,binds
same,binding,HA-Dvl2 (Dishevelled 2),binds

# These are yes or no findings as the source states them, for the method shown. In cells and extracts the contact can be indirect. Binding calls can cover weak binding; strength is not graded here. Sequences can lack the tags named with a protein.
